Data on 2 substances can be found in article PMC4974575.

Sequences of proteins named here, by UniProt entry; tags and fusion partners are left off. Residues count along the entry.
UniProt P52799, residues 28-333: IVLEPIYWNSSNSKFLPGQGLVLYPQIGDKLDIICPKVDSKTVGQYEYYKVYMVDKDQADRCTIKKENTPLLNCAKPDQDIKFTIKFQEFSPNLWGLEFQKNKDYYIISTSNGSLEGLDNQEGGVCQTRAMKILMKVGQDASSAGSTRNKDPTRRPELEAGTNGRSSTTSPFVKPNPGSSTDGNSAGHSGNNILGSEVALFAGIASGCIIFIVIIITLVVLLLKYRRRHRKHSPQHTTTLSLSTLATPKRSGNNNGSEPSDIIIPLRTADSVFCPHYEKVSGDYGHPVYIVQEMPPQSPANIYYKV
UniProt P52800, residues 29-336: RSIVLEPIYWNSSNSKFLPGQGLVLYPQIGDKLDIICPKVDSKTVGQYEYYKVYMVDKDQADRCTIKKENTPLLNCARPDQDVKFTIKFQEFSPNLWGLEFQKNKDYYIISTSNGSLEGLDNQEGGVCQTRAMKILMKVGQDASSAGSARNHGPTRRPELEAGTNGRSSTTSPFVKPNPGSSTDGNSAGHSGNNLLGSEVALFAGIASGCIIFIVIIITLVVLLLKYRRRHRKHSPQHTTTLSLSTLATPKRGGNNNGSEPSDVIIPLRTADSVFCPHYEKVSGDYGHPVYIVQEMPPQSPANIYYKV

The assay has as its target T1, recombinant mouse EphB4-Fc (mouse) (UniProt P54761).
T1 sequence: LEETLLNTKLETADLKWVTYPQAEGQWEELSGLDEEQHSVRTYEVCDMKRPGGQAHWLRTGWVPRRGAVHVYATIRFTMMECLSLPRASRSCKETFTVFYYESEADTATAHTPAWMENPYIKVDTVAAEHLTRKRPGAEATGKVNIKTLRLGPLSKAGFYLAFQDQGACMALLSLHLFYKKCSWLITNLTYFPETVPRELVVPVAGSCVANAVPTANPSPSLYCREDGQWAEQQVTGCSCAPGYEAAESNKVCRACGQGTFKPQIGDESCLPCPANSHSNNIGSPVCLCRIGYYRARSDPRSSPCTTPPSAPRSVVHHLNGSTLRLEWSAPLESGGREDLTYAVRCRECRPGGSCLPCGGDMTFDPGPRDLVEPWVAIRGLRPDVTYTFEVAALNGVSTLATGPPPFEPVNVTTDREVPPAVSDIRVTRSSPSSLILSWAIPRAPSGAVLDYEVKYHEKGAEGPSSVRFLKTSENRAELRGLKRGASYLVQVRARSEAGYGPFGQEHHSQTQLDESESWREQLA
The assay can be described thus: pull-down; cells stimulated for 1 h with pre-clustered EphB4-Fc (1 ug/ml final) before lysis in LBA buffer; EphB4 pull-down as described in ref. 69; immunoblot with anti-ephrinB2; LN229 cells with scrambled control or ZEB2 shRNA at 21% or 1% O2 for 18 h; only the target purified. In general terms: A western blot detects proteins with antibodies after separation by electrophoresis.

Results are given in words; binding and its absence hold for the method and conditions named. In cells and extracts the contact can be indirect. Some binding calls cover weakened binding; strength is not graded here. Where a sequence is shown, tags or fusion partners need not be part of it.

With “ephrinB2 (human glioblastoma cells) (from UniProt P52799 28-333) (ligand)”, the binding result was “binds”.
Consider “ephrinB2 (murine glioma cells) (from UniProt P52800 29-336) (ligand)”, for which the binding entry was “binds”.
